In PubChem BioAssay AID1487 (National Center for Advancing Translational Sciences (NCATS), 2009):
Out of some 200,000 compounds screened, about 25 (0.01%) were called active. The shares of active, inactive and inconclusive entries below differ from those in the screen. Calls come from the whole dose curve; as a rule, active = well fitted inhibition curve with a large enough effect in the signal ratio, with a control signal flat (not every such curve was filed as active); inconclusive = small, poorly fitted or top-dose-only effect, or effect the other way, or a change in a side signal; inactive = flat fitted curve, though single readings scatter; the % refers to the signal ratio. Where the call is inconclusive, the potency comes from a doubtful curve fit.
% is set by controls: 0 for no effect and ±100 for the full control effect; potency is the fitted concentration of half-maximal effect.

Assay: qHTS Assay for Modulators of Lamin A Splicing
Conditions: HeLa LMNA splicing GFP/RFP minigene ratio, 48 h; ratio change, negative = inhibition: at 46.1 µM (top of the series) unless noted
Summary of the method: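 S3 HeLa stable clones carrying a lamin A-EGFP splicing minigene plus DsRed2 were seeded at 600 cells/well in Opti-MEM with 2% FBS, pin-dosed and incubated 48 h at 37°C. Acumen cytometry (488 nm) gave the GFP/RFP total-intensity ratio.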
In the case of `Cc1ccc(-n2nc3cc(C)c(NC(=S)NC(=O)/C=C/c4ccco4)cc3n2)cc1`, the ratio change, negative = inhibition is reported as inconclusive: 1.18%. For `Cc1cc(C)nc(NN2C(=O)/C(=C/c3ccccc3)SC2=S)n1`, the ratio change, negative = inhibition was “inactive”. With `COc1cccc2cc(C(=O)N(Cc3cccs3)CC3CCCO3)c(=O)oc12` (stereo not given) the ratio change, negative = inhibition was inconclusive: 2.18% [at 46 µM]. In the case of `COc1ccc(S(=O)(=O)NC2CCCC2)c(Cl)c1Cl`, the ratio change, negative = inhibition is reported as “inactive”. In the case of `O=S(=O)(c1ccc(-c2csc(-c3cccnc3)n2)cc1)N1CCCC1`, the ratio change, negative = inhibition is reported as inconclusive: 47.7%. In the case of `CSc1ccc(CNC(=O)c2ccc(NC(=O)c3nsc4ccccc34)cc2)cc1`, the ratio change, negative = inhibition is reported as inconclusive: 38% [at 46 µM]. With `Fc1ccc(CSc2nnc(-c3ccncc3)o2)cc1` the ratio change, negative = inhibition was inconclusive: 9.69% [at 46 µM]. With `COc1ccc(C(=O)Nn2c(CCC(=O)O)ccc2-c2ccc(C)cc2)cc1OC` the ratio change, negative = inhibition was inconclusive: 3.89% [at 46 µM]. For `Clc1ccc(OCc2nnc(SCc3nc4ccccc4[nH]3)n2Cc2ccco2)cc1`, the Potency was inconclusive: 10 µM [falling, partial curve]. In the case of `CN(CC(=O)Nc1nc2ccccc2s1)S(=O)(=O)c1ccc(Br)cc1`, the Potency is reported as inconclusive: 35.5 µM [fluorescent, single point]. For `CCCCc1ccc(NC(=S)N2CCCC(C)C2)cc1` (stereo not given), the ratio change, negative = inhibition was inconclusive: -14.6% [at 46 µM]. For `O=S(=O)(Nc1ccccc1N1CCCCC1)c1ccc(F)cc1`, the ratio change, negative = inhibition was inconclusive: 6.04% [at 46 µM]. For `CCC1CN(C(=O)N2CCC(C(=O)NCCc3ccccc3C)CC2)c2ccccc2O1` (stereo not given), the ratio change, negative = inhibition was inconclusive: -15.3% [at 46 µM]. For `Cc1cccc(-n2nnnc2SCC(=O)c2cc(C)n(Cc3ccco3)c2C)c1`, the ratio change, negative = inhibition was inconclusive: 14.9%. With `COc1ccc(N2C(C)=CS/C2=C(/C#N)c2nnc(N3CCOCC3)n2-c2ccccc2)cc1` the ratio change, negative = inhibition was “inactive”. With `CSC1=NC2C(N1)N(C)C(=O)N2C` (stereo not given) the ratio change, negative = inhibition was “inactive”. For `CC(C(=O)Nc1ccc(OCc2ccccc2)cc1)N1CCCC1` (stereo not given), the ratio change, negative = inhibition was “inactive”. For `COc1ccc(C(=O)O/N=C(\N)Cc2ccc(Cl)cc2Cl)cc1OC`, the Potency was inconclusive: 22.4 µM [cytotoxic, single point]. For `Cc1ccc2c(c1)nnn2C1CCN(CC(=O)Nc2ccccc2N2CCOCC2)CC1`, the Potency was inconclusive: 35.5 µM [fluorescent, single point]. For `Nc1nonc1C(=O)N/N=C/c1cc(Br)ccc1O`, the ratio change, negative = inhibition was inconclusive: -50.1% [at 46 µM]. In the case of `O=C(CSc1ccc(-c2ccco2)nn1)c1cccc([N+](=O)[O-])c1`, the ratio change, negative = inhibition is reported as inconclusive: 12.9%. With `CN1CCc2nc3sc(C(=O)NCc4ccccc4)c(N)c3cc2C1` the ratio change, negative = inhibition was inconclusive: 3.16% [at 46 µM]. In the case of `Fc1cccc(NC(=S)NCc2ccc(Cl)cc2)c1`, the Potency is reported as inconclusive: 35.5 µM [fluorescent, single point]. For `CC(C)c1ccc(C2N3CC4([N+](=O)[O-])CN2CC([N+](=O)[O-])(C3)C4(C)C)cc1` (stereo not given), the ratio change, negative = inhibition was inconclusive: -14.1%. In the case of `Cc1cccc(NC(=O)C2CCN(S(=O)(=O)c3c(C)noc3/C=C/c3ccco3)CC2)n1`, the ratio change, negative = inhibition is reported as inconclusive: -46.9%. In the case of `c1cc(CNC2C3CC4CC(C3)CC2C4)ccn1` (stereo not given), the ratio change, negative = inhibition is reported as inconclusive: -15.3% [at 46 µM]. With `CC(=O)Nc1ccc(S(=O)(=O)Oc2ccc(C(=S)N3CCC(O)CC3)cc2)cc1` the Potency was inconclusive: 11.2 µM [fluorescent, partial curve]. With `O=C(Nc1ccc(N2CCN(C(=O)c3cccs3)CC2)c(Cl)c1)c1cccnc1` the ratio change, negative = inhibition was inconclusive: -34.5% [at 46 µM]. For `Nc1nc(N)c2nc(-c3ccccc3)c(N)nc2n1`, the ratio change, negative = inhibition was inconclusive: -18.9%. With `Cc1[nH]n(-c2ccccc2)c(=S)c1C=Nc1cccc([N+](=O)[O-])c1` the ratio change, negative = inhibition was “inactive”. With `COc1ccc(Cl)cc1NC(=O)Cn1nc(-c2ccc(C)cc2)n(C)c1=S` the ratio change, negative = inhibition was inconclusive: -28.5%. With `CC(C)C(NC(=O)c1ccco1)C(=O)OCC(=O)Nc1ccc(C(N)=O)cc1` (stereo not given) the ratio change, negative = inhibition was inactive: -5.58% [at 9.22 µM]. With `O=CCCCC=O` the ratio change, negative = inhibition was inconclusive: 6.5%. In the case of `CCN1C(=O)/C(=C/c2ccc(C)s2)SC1=Nc1ccc(OC)cc1`, the ratio change, negative = inhibition is reported as inconclusive: -1.4%. With `CCOC(=O)N1CCN(C(=O)c2nn(-c3cc(OC)cc(OC)c3)c(=O)c3ccccc23)CC1` the ratio change, negative = inhibition was “inactive”. With `O=C(c1cncc(Br)c1)N1CCCc2ccccc21` the ratio change, negative = inhibition was “inactive”. For `CSC1=NCCN1C(=O)c1ccc(C)cc1`, the ratio change, negative = inhibition was inconclusive: 5.65% [at 46 µM]. In the case of `COc1cccc(N/C(SCc2ccccc2Cl)=C(/C#N)C(=O)NCc2cccs2)c1`, the ratio change, negative = inhibition is reported as “inactive”. With `COc1cc(CO)ccc1OCc1nnnn1-c1ccc(C)cc1` the ratio change, negative = inhibition was inconclusive: 14.1% [at 46 µM]. With `c1cncc(CNc2ccnc(-c3ccc4c(c3)OCO4)n2)c1` the ratio change, negative = inhibition was inconclusive: 39.8%. With `Cc1cc(C)n(CC(O)CN2c3ccccc3Sc3ccccc32)n1` (stereo not given) the ratio change, negative = inhibition was inconclusive: -30.5%. For `Cc1cccc(Nc2nc(N)c(C#N)c(CC#N)c2C#N)c1`, the ratio change, negative = inhibition was inconclusive: 9.9%. With `O=C(Nc1ccc2c(c1)nc1n2CCCCC1)c1cc(S(=O)(=O)N2CCOCC2)ccc1Cl` the Potency was inconclusive: 7.08 µM [fluorescent, partial curve]. In the case of `CC(=O)c1ccc(NC(=O)C2CCCN(S(=O)(=O)c3ccc4c(c3)CCCN4C(C)=O)C2)cc1` (stereo not given), the ratio change, negative = inhibition is reported as inconclusive: -15.8% [at 46 µM]. In the case of `Cc1cccc(C)c1NC(=O)CCCCCNS(=O)(=O)c1ccccc1`, the ratio change, negative = inhibition is reported as “inactive”. With `COc1cccc(OC(C)c2ccnc3nc(/N=C/N(C)C)nn23)c1` (stereo not given) the ratio change, negative = inhibition was inconclusive: 20%. In the case of `CCOC(=O)C1=C(CNCCc2ccc(Cl)cc2)NC(=O)NC1c1cccc([N+](=O)[O-])c1` (stereo not given), the ratio change, negative = inhibition is reported as inconclusive: -5.95% [at 46 µM]. For `CCCCOc1ccc(C(=O)CCN2CCCCC2)cc1`, the Potency was inconclusive: 31.6 µM [activator, partial curve]. With `O=C(Cn1cnc2ccccc2c1=O)N1CCOCC1` the ratio change, negative = inhibition was inconclusive: 0.262%. For `Cc1nn(Cc2ccc(F)cc2)c2sc(C(=O)Nc3nccs3)cc12`, the ratio change, negative = inhibition was inconclusive: 0.805%. With `Cn1c(=O)c2c(ncn2CC(COCc2ccc(Cl)cc2)OCc2ccc(Cl)cc2)n(C)c1=O` (stereo not given) the Potency was inconclusive: 35.5 µM [falling, single point]. For `O=C(Nc1ccc(N2CCOCC2)c(S(=O)(=O)Nc2ccc(Cl)cc2)c1)c1cnccn1`, the ratio change, negative = inhibition was inconclusive: 68.9% [at 46 µM]. In the case of `CCc1ccccc1NCC(=O)Nc1ccc(Cl)c(C(F)(F)F)c1`, the Potency is reported as inconclusive: 35.5 µM [falling, single point]. With `Cc1ccc(S(=O)(=O)N2CCC(c3ccncc3)CC2)c(C)c1` the ratio change, negative = inhibition was “inactive”. With `O=C(Nc1ccccc1C(=O)NCc1ccco1)Nc1cccc2ccccc12` the ratio change, negative = inhibition was inconclusive: 28.8% [at 46 µM]. In the case of `CC1(C)CC(=O)c2cc3c(N)c(C(=O)NCc4ccccc4)sc3nc2C1`, the ratio change, negative = inhibition is reported as “inactive”. For `CCC1CN(C(=O)Nc2cc(C)cc(C)c2)c2ccccc2O1` (stereo not given), the ratio change, negative = inhibition was inconclusive: -21.5% [at 46 µM]. With `CCOC(=O)C(C(=O)Nc1ccccn1)C1CCCCC1` (stereo not given) the ratio change, negative = inhibition was “inactive”. For `CN(C(=O)COC(=O)c1ccccc1SCC(=O)NC1CCCCCCC1)C1CCS(=O)(=O)C1` (stereo not given), the ratio change, negative = inhibition was “inactive”. With `CCCC(=O)NC(c1ccc(OC)cc1)c1ccc2cccnc2c1O` (stereo not given) the Potency was inconclusive: 6.31 µM [inhibitor, full curve]. With `CCCCOc1ccc(CNC(=O)c2cnc3sc(N4CCOCC4)nn3c2=O)cc1` the ratio change, negative = inhibition was inconclusive: -3.57% [at 46 µM]. In the case of `Cc1cccc(NC(=S)NCCc2ccc3c(c2)OCCO3)c1C`, the ratio change, negative = inhibition is reported as inconclusive: 4.59% [at 9.22 µM]. With `COc1ccc(-c2cnnn2-c2ccc(NC(=O)c3c(F)cccc3F)cc2)cc1` the ratio change, negative = inhibition was inconclusive: -11.2% [at 46 µM]. In the case of `COC(=O)N1C2=C(c3ccccc3[C@@H]1CC(=O)Nc1ccc(Br)cc1)[C@@H]1C(=O)N(c3ccccc3)C(=O)[C@@H]1[C@H](C)C2`, the ratio change, negative = inhibition is reported as inactive: -13.3% [at 9.22 µM]. With `Cn1c(N2CCCCC2)nc2c1c(=O)[nH]c(=O)n2C` the ratio change, negative = inhibition was “inactive”. In the case of `COc1cccc(C2C(C(C)=O)=C(O)C(=O)N2CCNCCO)c1` (stereo not given), the ratio change, negative = inhibition is reported as “inactive”. In the case of `CC(C)Cn1cc(C(=O)N2CCOCC2)c2c3ccccc3n(C)c2c1=O`, the ratio change, negative = inhibition is reported as “inactive”. In the case of `COc1cc2c(cc1NC(=O)CSc1nnc(COc3ccc(Cl)cc3)n1C)oc1ccccc12`, the ratio change, negative = inhibition is reported as “inactive”. In the case of `CC1=C(C(=O)N(C)C)C(c2ccc(C)s2)NC(=S)N1` (stereo not given), the ratio change, negative = inhibition is reported as “inactive”. In the case of `COc1ccc2c(c1OC)C(=O)OC2CC(=O)c1ccc(O)cc1` (stereo not given), the ratio change, negative = inhibition is reported as “inactive”. With `COc1ccccc1NC(=O)C1=C(C)Nc2nc(CCCO)nn2C1c1ccc2c(c1)OCO2` (stereo not given) the ratio change, negative = inhibition was “inactive”. With `O=S(=O)(NC1c2cccc3cccc(c23)C1N1CCN(CCO)CC1)c1ccccc1` (stereo not given) the Potency was inconclusive: 10 µM [falling, partial curve]. With `CC(C)c1ccc(NC(=O)c2cc(S(=O)(=O)NCC3COc4ccccc4O3)ccc2F)cc1` (stereo not given) the Potency was inconclusive: 31.6 µM [inhibitor, single point]. For `CCOC(=O)c1c(NC(=O)CC2Nc3ccccc3NC2=O)sc(C)c1C` (stereo not given), the ratio change, negative = inhibition was “inactive”. For `COc1ccccc1-c1ccc(SCc2cccc(F)c2)nn1`, the ratio change, negative = inhibition was inconclusive: 15.6% [at 46 µM]. For `Cc1ccc(Cn2ccc(NC(=O)c3cc(-c4ccc(F)cc4)on3)n2)cc1`, the ratio change, negative = inhibition was inconclusive: -1.34%. With `N#CC1=C(N)N(c2ccc(Oc3ccccc3)cc2)C(=O)C1` the ratio change, negative = inhibition was “inactive”. With `N#Cc1cccc(NC(=O)COC(=O)c2ccccc2C(=O)c2ccc(Cl)c([N+](=O)[O-])c2)c1` the ratio change, negative = inhibition was inconclusive: 42.5%. In the case of `COC(=O)c1c(-c2cccc(C)c2)csc1NC(=O)C1CCCO1` (stereo not given), the ratio change, negative = inhibition is reported as inconclusive: -5.37% [at 46 µM]. With `COC(=O)c1ccc(NC(=O)CN2C(=O)C3C4C=CC(C4)C3C2=O)cc1` (stereo not given) the ratio change, negative = inhibition was “inactive”.
